Measured values published in publication PMC10356794.
These are yes or no findings as the source states them, for the method shown. For part of these data: Binding seen in cells or lysates may run through a third protein. Some binding calls cover weakened binding; strength is not graded here. Sequences can lack the tags named with a protein.

T1: HA-tagged HSL (UniProt P54310)
T1 sequence: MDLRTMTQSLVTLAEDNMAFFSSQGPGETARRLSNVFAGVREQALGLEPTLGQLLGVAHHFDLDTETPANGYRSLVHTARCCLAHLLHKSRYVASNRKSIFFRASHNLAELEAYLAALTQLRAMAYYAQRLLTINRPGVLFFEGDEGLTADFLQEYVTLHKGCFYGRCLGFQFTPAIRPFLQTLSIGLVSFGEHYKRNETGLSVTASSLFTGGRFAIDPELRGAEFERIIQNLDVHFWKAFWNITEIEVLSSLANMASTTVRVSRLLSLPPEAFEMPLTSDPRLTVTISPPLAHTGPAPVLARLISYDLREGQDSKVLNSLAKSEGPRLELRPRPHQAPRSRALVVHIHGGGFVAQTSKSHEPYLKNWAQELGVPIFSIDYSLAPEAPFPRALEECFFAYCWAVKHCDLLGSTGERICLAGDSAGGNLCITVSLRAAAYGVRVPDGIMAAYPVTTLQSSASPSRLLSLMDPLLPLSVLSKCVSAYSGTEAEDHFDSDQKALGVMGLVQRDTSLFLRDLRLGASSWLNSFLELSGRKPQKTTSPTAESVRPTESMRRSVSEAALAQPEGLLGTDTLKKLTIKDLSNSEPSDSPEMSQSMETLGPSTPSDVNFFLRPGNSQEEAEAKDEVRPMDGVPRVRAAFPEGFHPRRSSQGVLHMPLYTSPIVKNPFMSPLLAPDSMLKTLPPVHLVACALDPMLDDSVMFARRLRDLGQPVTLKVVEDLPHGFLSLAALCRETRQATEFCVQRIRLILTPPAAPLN


Tests used:
HA-tagged HSL = target: T1, HA-tagged HSL; experiment: co-IP; HEK293T cells transiently transfected for 48 h with Musclin or Musclin-Fc and Flag-Tfr1 or HA-HSL; whole-cell lysates, immunoprecipitation, immunoblot
Flag-tagged Tfr1 = Flag-tagged Tfr1 (UniProt Q62351); experiment: as above
[1] = target: Tfr1, endogenous in mouse inguinal white adipose tissue (iWAT) (mouse (endogenous in iWAT)) (UniProt Q62351); experiment: SEAP fusion binding assay on frozen tissue sections; concentrated conditioned medium with SEAP or SEAP-Musclin on frozen mouse tissue sections, 45 min at room temperature; bound alkaline phosphatase developed with NBT/BCIP; iWAT of control and Tfr1-iAKO mice

Binder | binding (HA-tagged HSL) | binding (Flag-tagged Tfr1) | binding [1]
Musclin-Fc (Fc-tagged Musclin), expressed in HEK293T (Fc fusion, UniProt P61364 26-130) FSVDLASQEFGTASLQSPPTAREEKSATELSAKLLRLDDLVSLENDVFETKKKRSFSGFGSPLDRLSAGSVEHRGKQRKAVDHSKKRFGIPMDRIGRNRLSSSRG | no binding | binds | 
SEAP-Musclin fusion protein (ligand, UniProt P61364 26-130) FSVDLASQEFGTASLQSPPTAREEKSATELSAKLLRLDDLVSLENDVFETKKKRSFSGFGSPLDRLSAGSVEHRGKQRKAVDHSKKRFGIPMDRIGRNRLSSSRG |  |  | binds
